Data reported in PMC12040169 (PLOS Biology, 2025).
The list shows a part of the results.

System: T1, CTL2-GFP (C. trachomatis L2/434/Bu, GFP-expressing)
T1 construct: L2/434/Bu, GFP-expressing
Set-up: species or system HeLa; Intracellular C. trachomatis growth in HeLa cells, bulk GFP fluorescence relative to DMSO
Conditions: bulk GFP, single well; 28.5 h, 10 µM; inhibitor

Structure (SMILES) | % of control remaining [%]
Cc1cc(NC(=O)CN2CCC(CNc3ncccc3C#N)C2)on1 (stereo not shown) [CBK306127] | 114.75
Cc1ccc(CNCCn2nnc(-c3ccc(CN4CCC(C)CC4)cc3)n2)cc1 [CBK154882T] | 116.235
Cc1csc(NC(=O)CN2CCC(c3ccc(F)cc3)CC2)n1 [CBK283567] | 128.879
CCc1nccn1CCC(=O)NC(c1ccc(C)cc1)c1cccnc1 (stereo not shown) [CBK282032] | 126.787
O=C(COc1cc(C(=O)O)nc2ccccc12)NCc1ccc(Cl)cc1 [CBK287247] | 130.793
CN(C)S(=O)(=O)c1ccc(C(=O)C2=C(O)C(=O)N(CCN3CCOCC3)C2c2ccco2)cc1 (stereo not shown) [CBK264521] | 100
CCOc1ccc(S(=O)(=O)N2CCCN(Cc3ccc(C#N)cc3)CC2)c2cccnc12 [CBK062759] | 54.3283
Cc1noc(C)c1C(=O)N1CCN(Cc2ccco2)C[C@@H]1C(C)C [CBK284248] | 119.537
O=C(NC1CCN(CC(F)(F)F)C1=O)c1ccnc(C2CC2)n1 (stereo not shown) [CBK306268] | 121.74
CCN1CCN(C(=O)c2ccc(N(C)C)cc2)CC1 [CBK200252] | 161.316
Cc1ccc(Cn2nc(NC(=O)c3ccccc3)c3ccccc32)cc1 [CBK048213] | 88.7593
CC1Oc2ccc(S(=O)(=O)Nc3ccc(CCC(=O)O)cc3)cc2NC1=O (stereo not shown) [CBK299769] | 191.028
Cc1c(NC(=S)NC(=O)Cc2ccccc2)cccc1-c1nc2ncccc2o1 [CBK264345] | 54.1242
O=C1Nc2ccc(Br)cc2C(=O)N2CCN(C(=O)c3ccccc3)C[C@H]12 [CBK289589] | 119.098
CC1CCc2c(sc(NC(=O)COc3ccccc3)c2C(=O)Nc2ccccc2Cl)C1 (stereo not shown) [CBK263044] | 95.598
O=C(O)c1cc(Sc2nnnn2-c2ccccc2)c2ccccc2c1O [CBK006925] | 118.97
Cc1ccc(Cl)cc1NC(=O)c1cc(NC(=O)C2CC=CCC2C(=O)O)ccc1N1CCOCC1 (stereo not shown) [CBK268479] | 119.63
COc1ccccc1NC(=O)c1cn(Cc2ccc(N)cc2)cn1 [CBK288045] | 102.137
Clc1ccc(COc2cccc(CNCc3ccccn3)c2)c(Cl)c1 [CBK270060C] | 142.291
O=C1c2ccccc2CN1CCNS(=O)(=O)c1ccc2oc3ccccc3c2c1 [CBK264918] | 110.812
Cc1nc(-c2ccccc2)sc1C(=O)C1=C(O)C(=O)N(CCN(C)C)C1c1ccc(Cl)cc1 (stereo not shown) [CBK266595] | 167.068
O=C(NCCO)c1cccc(-c2cncc(N3CCCCC3CCO)n2)c1 (stereo not shown) [CBK037759] | 156.212
Cn1cnnc1SCC(=O)c1cccc(C(F)(F)F)c1 [CBK067718] | 99.807
Cc1nc(N2CCCCC2)ncc1C(=O)NCCc1cc[nH]n1 [CBK307035] | 135.72
Cc1cc(C(C)NC(=O)C2CCCN(S(C)(=O)=O)C2)c(C)s1 (stereo not shown) [CBK305464] | 128.142
COc1cc(CO)cc(I)c1OCC(=O)Nc1ccccc1 [CBK265950] | 101.886
CCCn1cnc2sc(C(=O)Nc3ccc(C)cc3C)c(C)c2c1=O [CBK071815] | 100

As a working copy, two of the compounds above:
Structure (SMILES) | % of control remaining [%]
CCOc1ccc(S(=O)(=O)N2CCCN(Cc3ccc(C#N)cc3)CC2)c2cccnc12 [CBK062759] | 54.3283
Cc1noc(C)c1C(=O)N1CCN(Cc2ccco2)C[C@@H]1C(C)C [CBK284248] | 119.537

2 of these compounds, set out differently:

| Structure (SMILES) | % of control remaining [%] |
| --- | --- |
| O=C(O)c1cc(Sc2nnnn2-c2ccccc2)c2ccccc2c1O [CBK006925] | 118.97 |
| Cc1ccc(Cl)cc1NC(=O)c1cc(NC(=O)C2CC=CCC2C(=O)O)ccc1N1CCOCC1 (stereo not shown) [CBK268479] | 119.63 |

Later entries

Structure (SMILES) | % of control remaining [%]
OC1CCC(Nc2cncc(-c3cccc4ccccc34)n2)CC1 (stereo not shown) [CBK065902] | 149.939
COc1ccc(Oc2ccc(C=Cc3nc4sc(C(=O)O)c(C)c4c(=O)[nH]3)cc2[N+](=O)[O-])cc1 [CBK295637] | 135.029
CCN(CC)C(=O)CCNC(=O)c1ccc2c(c1)COC(C1CCN(C(=O)OC(C)(C)C)CC1)O2 (stereo not shown) [CBK173273] | 103.521
CC(C)Cc1ccc(C(CC(=O)O)C(=O)O)cc1 (stereo not shown) [CBK286703] | 132.493
Cc1ccc(S(=O)(=O)Nc2ccccc2CNc2ccc(Br)cc2)cc1 [CBK264214] | 86.0816
CN(CCN1CCCCC1)C(=O)Cn1ccnc1-c1ccccc1 [CBK281900] | 150.033
COc1ccc(NC(=O)N(CCO)C2CCCCC2)c(OC)c1 [CBK008768] | 108.093
COC(=O)c1ccc(N2CCN(C)CC2)c(NC(=O)c2cc(Br)ccc2OC)c1 [CBK269221] | 89.6432
CC(C)[C@@H](CO)n1c(=O)[nH]c2ncc(-c3cccc4ccccc34)nc21 [CBK064961] | 103.056
COc1ccc2c(c1)cc(C)c1n[nH]c(=O)n12 [CBK283766] | 166.771
C=C(C)Cn1c(SCC(C)C)nnc1-c1ccccc1C(=O)O [CBK200093] | 121.073
C/N=C1/c2cn3ccccc3c2CCN1C [CBK022058] | 107.001
O=C1CCCN1CCOc1nccnc1-c1ccccc1Cl [CBK106999] | 94.3574
Cc1ccc(NC(=O)c2nc3ccccc3[nH]2)c(C)n1 [CBK200296] | 157.15
COCCN(C(=S)Nc1ccc(C)cc1Cl)C(C)c1cccnc1 (stereo not shown) [CBK294472] | 150.905
O=C(CN1CCCCC1)N1CCCC1c1nc2ccccc2[nH]1 (stereo not shown) [CBK283935] | 123.021
CCOC(=O)CNC(=O)Nc1cc2ccccc2c(Br)n1 [CBK063279] | 110.423
Cc1cc(COc2nccnc2OC2CCN(CCN3CCOCC3)CC2)no1 [CBK082961T] | 112.223
CC(C)c1ccc(S(=O)(=O)Nc2ccc(Br)c(F)c2)cc1 [CBK044556] | 83.156
CCOC(=O)c1ccc(NC(=O)c2ccccc2-c2nc(-c3ccccc3Cl)no2)cc1 [CBK268919] | 112.332
O=C(CCC1CCCO1)NC(Cc1ccsc1)c1cccnc1 (stereo not shown) [CBK285159] | 134.314
CCCc1cn(C2CCN(c3cc(-n4cc(C)cn4)ncn3)CC2)nn1 [CBK307127] | 114.429
CC(NC(=O)C(C)(C)C)c1nc(-c2cccnc2)n[nH]1 (stereo not shown) [CBK104007] | 114.516
Cc1cccc(CN(CCN)C(=O)Nc2ccc(C(C)(C)C)cc2)n1 [CBK046230C] | 57.9837
COc1cccc(C(=O)Nc2ccc(Br)cc2C(=O)O)c1 [CBK022487] | 101.094
CCCNC(=O)CN(C)Cc1nc(-c2cccc(C(F)(F)F)c2)no1 [CBK305672] | 98.9983
CC(C)(Oc1ccc(Cl)cc1)C(=O)Nc1nnc[nH]1 [CBK288220] | 123.887

Structure (SMILES) | % of control remaining [%]
Cn1c(N2CCC(C(=O)NCC3CC3)CC2)nc2ccccc21 [CBK283957] | 133.557
CC(=O)Nc1ccc(C#CC2(NC(=O)C3CC3)CCCCC2)cn1 [CBK284676] | 103.335
CC(=O)Nc1cc(NC(C)=O)c(O)c(C(=O)O)c1 [CBK009871] | 131.059
CC(C)n1cc(C(=O)N2CCCCC2c2nc3ccccc3[nH]2)cn1 (stereo not shown) [CBK283679] | 100.94
CCOC(=O)c1ccccc1NS(C)(=O)=O [CBK262271] | 76.9777
CNc1nc(NCCc2cnc(=O)n(C)c2O)cc(C2CCOC2)n1 (stereo not shown) [CBK307156] | 124.128
Cc1ccc(C(C)(C)C(=O)N2CCC(CC(=O)N(C)C)CC2)cc1 [CBK281973] | 119.097
COc1ccc(CCNC(=O)c2ccccc2NS(=O)(=O)c2cc(C(=O)O)ccc2OC)cc1 [CBK297506] | 148.823
CC(C)c1ccc(N2C(=O)N[C@@H]3CCN(S(=O)(=O)c4ccccc4)[C@@H]3C2=O)cc1 [CBK289289] | 98.5456
Cc1nn(C)cc1C(=O)NC(Cc1ccsc1)c1cccnc1 (stereo not shown) [CBK285392] | 122.927
COC(=O)c1c(NC(=O)c2c(C)c(-c3ccc(Cl)cc3Cl)nc3ccccc23)sc2c1CCC(C)C2 (stereo not shown) [CBK262644] | 100
COc1nc(N(C)C)nc(N2CC(=O)N(c3ccccc3)C2=N)n1 [CBK269079] | 191.108
O=C(C1CCCCC1)N1CC(n2nc(-c3ccccc3)ccc2=O)C1 [CBK284616] | 152.396
CC(=O)N1CCC[C@H]2NC(=O)CNC(=O)C3(C/C=C/C[C@H]21)CCNCC3 [CBK292173] | 115.388
CSc1nc(O)c(C(c2ccc(C(=O)O)cc2)c2c(O)nc(SC)nc2O)c(O)n1 [CBK265288] | 89.7365
COC(=O)c1cn(Cc2ccccc2)nn1 [CBK073903] | 136.776
O=C(NCC1CCCO1)[C@H]1CCCC[C@H]1C(=O)O (stereo partly shown) [CBK287104] | 112.883
COc1cc(C)c(S(=O)(=O)n2c(C)nc3ccccc32)cc1C [CBK265464] | 104.472
O=C(O)CCCNS(=O)(=O)c1ccc([N+](=O)[O-])cc1 [CBK261317] | 100
O=C(Cn1ccccc1=O)Nc1ccc(OCC(F)(F)F)nc1 [CBK304556] | 152.264
NC[C@H]1CC[C@H](C(=O)NCC2CCCN(Cc3ccccc3)C2)CC1 (stereo partly shown) [CBK282764] | 125.421
O=C(NCCc1ccccc1)c1nc(-c2ccncc2)cs1 [CBK288604] | 119.392
CCc1nnc(NS(=O)(=O)c2ccc(Nc3ccc4nonc4c3[N+](=O)[O-])cc2)s1 [CBK261445] | 78.072
Cc1ccc(C)c2[nH]c(=O)c(CN(Cc3cccnc3)C(=O)NC3CCCCC3)cc12 [CBK068091] | 103.974
COc1ccc(CSc2nc(N)c3c4c(sc3n2)CCCC4)cc1 [CBK131876] | 101.163
